Test results reported in PubChem BioAssay AID2685 (National Center for Advancing Translational Sciences (NCATS), 2010).
This is one part of the list. The main result of the screen is listed elsewhere. These columns were measured beside it and carry no call. The list favours compounds with an active or inconclusive main result. Potencies come from curve fits of mixed quality, noted in brackets.

Assay: qHTS Assay for Lipid Storage Modulators in Drosophila S3 Cells;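 on cell number change: cells counted by Cell Tracker Red CMTPX staining in the red channel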
Conditions: BODIPY lipid droplet fluorescence, 18-24 h; for cell number change: measured here: cell count max response, cells fed with added oleic acid
Outline: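 Drosophila S3 cells got compounds at several concentrations plus oleic acid (400 uM solution). Laser-scanning cytometry with 488 nm excitation read lipid droplets at 500-530 nm and cells at 575-640 nm. Percent activity was relative to 20 uM Triacsin C.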

[1] = measured here: lipid fluorescence (Fed channel) AC50, cells fed with added oleic acid
[2] = measured here: cell number channel AC50, cells fed with added oleic acid

Row | Compound | cell number change | AC50 [1] | AC50 [2]
1 | COc1ccc(S(=O)(=O)N2CCN(CC(O)COc3ccc(C#N)cc3)CC2)cc1OC (stereo unspecified) | 15.4% |  | 
2 | CCCC(C)NC(=O)CN(c1ccc2c(c1)OCCO2)S(=O)(=O)c1ccccc1 (stereo unspecified) | -22.1% | 29.1 µM [rising, single point] | 
3 | COc1cccc(Sc2ccccc2/C=N/NC(N)=O)c1 |  | 0.651 µM [rising, single point] | 1.64 µM [rising, partial curve, poor fit]
4 | Cc1ccc(NNC(=O)c2cccs2)cc1Cl |  | 1.84 µM [rising, partial curve] | 
5 | CCOc1ccc(CC(=O)Nc2c(C(=O)Nc3ccccc3)oc3ccccc23)cc1OCC | -43.4% | 29.1 µM [falling, single point] | 29.1 µM [falling, single point]
6 | O=C(OCN1C(=O)c2ccccc2C1=O)c1cccc(S(=O)(=O)N2CCOCC2)c1 | 1.62% | 0.651 µM [rising, full curve] | 
7 | Cc1ccc(C2=NN(C(=O)CNCCO)C(c3cccs3)C2)cc1 (stereo unspecified) | -1.65% | 29.1 µM [rising, single point] | 
8 | O=C(NCCCn1ccnc1)c1ccc(N2CCCCCC2)c([N+](=O)[O-])c1 | 49.1% | 0.116 µM [rising, full curve, poor fit] | 9.2 µM [rising, partial curve, poor fit]
9 | O=C(Nc1ccccc1)C1=C[C@H](c2ccccc2)C[C@H](OCc2ccc(CO)cc2)O1 | 13.5% | 2.06 µM [rising, partial curve, poor fit] | 
10 | c1ccc(Cc2noc(CN3CCN(Cc4ccc5c(c4)OCO5)CC3)n2)cc1 | 8.51% | 20.6 µM [rising, partial curve, poor fit] | 
11 | CCOc1ccc(S(=O)(=O)/N=C(\N)c2ccccc2)cc1 | 3.63% | 0.411 µM [rising, full curve, poor fit] | 
12 | COc1ccc(C2CC(=O)C3=C(C2)Nc2ccccc2N(C(=O)C2CC2)C3c2cccnc2)cc1OC (stereo unspecified) | 40.4% | 23.1 µM [rising, partial curve] | 2.59 µM [rising, full curve, poor fit]
13 | COc1ccc(Cn2ccnc2)cc1[N+](=O)[O-] | -34.9% | 6.51 µM [falling, single point] | 32.6 µM [falling, single point]
14 | CC(C)/C=C/C(=O)N1CCCC(N2CCN(c3ccccc3F)CC2)C1 (stereo unspecified) | 1.72% | 0.326 µM [rising, partial curve, poor fit] | 
15 | CC(c1ccccc1)n1c(Br)nc2c1c(=O)[nH]c(=O)n2C (stereo unspecified) | 20.1% |  | 

3 compounds out of the list, arranged by number of heavy atoms, low to high.
Row | Compound | cell number change | AC50 [1] | AC50 [2]
11 | CCOc1ccc(S(=O)(=O)/N=C(\N)c2ccccc2)cc1 | 3.63% | 0.411 µM [rising, full curve, poor fit] | 
7 | Cc1ccc(C2=NN(C(=O)CNCCO)C(c3cccs3)C2)cc1 (stereo unspecified) | -1.65% | 29.1 µM [rising, single point] | 
10 | c1ccc(Cc2noc(CN3CCN(Cc4ccc5c(c4)OCO5)CC3)n2)cc1 | 8.51% | 20.6 µM [rising, partial curve, poor fit] | 
